We go through one molecule from paper PMC4059888.

No constants are given. Whether binding was seen depends on the method and setting. Some results given as binding are weak or reduced against the parent protein; the word gives no strength.

Assay [1] concerns the target T1, Msl1 (mouse (endogenous in mESCs)) (UniProt Q6PDM1).
T1 sequence: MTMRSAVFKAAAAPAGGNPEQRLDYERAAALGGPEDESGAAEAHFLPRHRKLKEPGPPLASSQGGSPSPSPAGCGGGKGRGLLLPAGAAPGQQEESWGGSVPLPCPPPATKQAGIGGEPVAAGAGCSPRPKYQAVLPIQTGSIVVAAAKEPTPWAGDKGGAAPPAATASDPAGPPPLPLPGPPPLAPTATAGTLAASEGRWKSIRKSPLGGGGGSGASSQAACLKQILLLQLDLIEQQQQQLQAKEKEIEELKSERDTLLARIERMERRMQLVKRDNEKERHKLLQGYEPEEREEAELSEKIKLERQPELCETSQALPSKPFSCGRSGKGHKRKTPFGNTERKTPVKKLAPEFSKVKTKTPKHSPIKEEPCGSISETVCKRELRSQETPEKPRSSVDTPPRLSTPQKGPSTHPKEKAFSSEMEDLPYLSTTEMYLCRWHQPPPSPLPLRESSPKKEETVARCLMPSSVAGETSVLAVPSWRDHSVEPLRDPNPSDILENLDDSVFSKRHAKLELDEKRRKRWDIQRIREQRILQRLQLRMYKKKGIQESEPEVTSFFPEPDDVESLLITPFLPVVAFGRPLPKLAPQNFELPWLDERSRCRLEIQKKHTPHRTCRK
In words: SEC; Superose 6 (10/300), 25 mM Tris pH 7.9, 1 mM DTT, 5 mM MgCl2, 150 mM KCl, 5% glycerol; 1 mg mESC nuclear extract; fractions analysed by Western blot for Nsl1, Msl1 and Mof.

Assay [2] has as its target T2, Nsl1 (mouse (endogenous in mESCs)) (UniProt Q80TG1).
T2 sequence: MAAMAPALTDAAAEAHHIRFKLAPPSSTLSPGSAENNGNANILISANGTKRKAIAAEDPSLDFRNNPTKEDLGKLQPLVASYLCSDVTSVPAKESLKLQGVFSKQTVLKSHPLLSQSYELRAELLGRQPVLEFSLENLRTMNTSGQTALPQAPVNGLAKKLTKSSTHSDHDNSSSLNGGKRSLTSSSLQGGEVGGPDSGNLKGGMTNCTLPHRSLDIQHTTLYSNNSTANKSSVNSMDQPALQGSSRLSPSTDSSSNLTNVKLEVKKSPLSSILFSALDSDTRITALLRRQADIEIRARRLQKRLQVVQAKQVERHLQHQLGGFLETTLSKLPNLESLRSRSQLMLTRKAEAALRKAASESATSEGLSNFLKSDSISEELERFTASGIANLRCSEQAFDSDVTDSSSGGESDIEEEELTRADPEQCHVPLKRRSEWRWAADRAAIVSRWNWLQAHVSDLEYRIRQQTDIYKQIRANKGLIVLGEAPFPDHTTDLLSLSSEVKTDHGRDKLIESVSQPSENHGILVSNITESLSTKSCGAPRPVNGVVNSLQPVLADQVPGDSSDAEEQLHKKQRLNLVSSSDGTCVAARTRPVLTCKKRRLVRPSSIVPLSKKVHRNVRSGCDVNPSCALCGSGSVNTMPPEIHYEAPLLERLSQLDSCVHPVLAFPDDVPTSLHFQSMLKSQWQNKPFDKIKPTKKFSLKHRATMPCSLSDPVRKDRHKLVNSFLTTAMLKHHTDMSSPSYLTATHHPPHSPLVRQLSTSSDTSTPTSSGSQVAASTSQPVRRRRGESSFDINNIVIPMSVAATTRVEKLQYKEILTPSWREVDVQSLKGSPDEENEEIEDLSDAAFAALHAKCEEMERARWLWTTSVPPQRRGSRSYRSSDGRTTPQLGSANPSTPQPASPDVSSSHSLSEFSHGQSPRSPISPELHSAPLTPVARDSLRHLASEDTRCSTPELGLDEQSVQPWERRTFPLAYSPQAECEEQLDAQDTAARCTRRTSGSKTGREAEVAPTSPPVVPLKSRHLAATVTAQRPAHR
The description is as above.

B1: Mof (male absent on the first) (enzyme, UniProt Q9D1P2 1-458)
chain: MAAQGATAAVAATTSGTVGEGEPGPGENAAVEGPARSPGRVSPPTPARGEPEVTVEIGETYLCRRPDSTWHSAEVIQSRVNDQEGREEFYVHYVGFNRRLDEWVDKNRLALTKTVKDAVQKNSEKYLSELAEQPERKITRNQKRKHDEINHVQKTYAEMDPTTAALEKEHEAITKVKYVDKIHIGNYEIDAWYFSPFPEDYGKQPKLWLCEYCLKYMKFEKSYRFHLGQCQWRQPPGKEIYRKSNISVYEVDGKDHKIYCQNLCLLAKLFLDHKTLYFDVEPFVFYILTEVDRQGAHIVGYFSKEKESPDGNNVACILTLPPYQRRGYGKFLIAFSYELSKLESTVGSPEKPLSDLGKLSYRSYWSWVLLEILRDFRGTLSIKDLSQMTSITQNDIISTLQSLNMVKYWKGQHVICVTPKLVEEHLKSAQYKKPPITVDSVCLKWAPPKHKQVKLSKK
In the case of B1, the binding entry in assay [1] and in assay [2] was “binds” each time.
